Some of these results come from one statement about several compounds together. Some compounds share one range, which may span the group rather than tell each member.
tested on: portal hypertension model; experiment: Portal hypertension animal model (bile duct ligation): portal blood pressure, portal vein diameter, blood flow; assay type: in vivo, beagle dog; conditions: 10 mg/kg/day oral for two weeks; thought not statistically significant
Protocol: The following experiments were performed to investigate the effect of pyrazolopyrimidinone derivative on portal hypertension. 12 beagle dogs weighing about 10 kg were divided into four groups (3 dogs were chosen per group randomly), and bile duct ligation was performed on them. […] The animals were fasted for 4 hours, then pentobarbital was intravenously injected to anesthetize them. A tube was inserted through the mesenteric vein to the portal vein to measure portal blood pressure. Doppler ultrasonography was also performed to measure the diameter of portal vein. Blood flow through the portal vein was measured by using the following mathematical chemistry FIG. 1, and the result is shown in Table 2. [formula]

Row | Compound | portal vein diameter increase
1 | CCCc1nn(C)c2c(=O)[nH]c(-c3cc(S(=O)(=O)N4CCN(C)CC4)ccc3OCC)nc12 [Sildenafil, sildenafil] | 6-9%
2 | CCCOc1ccc(S(=O)(=O)NCCC2CCCN2C)cc1-c1nc2c(CCC)nn(C)c2c(=O)[nH]1 (stereo not drawn) [Pyrazolopyrimidinone derivative, 5-[2-propyloxy-5-(1-methyl-2-pyrrolidinylethyl amidosulfonyl)phenyl]-1-methyl-3-propyl-1,6-dihydro-7H-pyrazolo(4,3-d)pyrimidin-7-one] | 6-9%
3 | CCCc1nc(C)c2c(=O)[nH]c(-c3cc(S(=O)(=O)N4CCN(CC)CC4)ccc3OCC)nn12 [Vardenafil, vardenafil] | 6-9%
